{"source": "patent US11434490B2", "about": "“Fluorogen-binding RNA aptamers” (CENTRE NATIONAL DE LA RECHERCHE SCIENTIFIQUE, priority 2017, dated 2022)", "origin": "cited, not measured here", "conditions": "cited from earlier work", "note": "At least one compound was matched to its structure with a doubt left.", "data": [{"smiles": "CN1C(=Cc2cc[n+](C)c3ccccc23)Sc2ccccc21", "note": "[TO1, Thiazole Orange]", "values": [{"measurement": "toxicity", "result": "lack of toxicity"}]}]}
